{"sequences": {"note": "Protein sequences, listed by entry. Tags and fused reporters are not part of them.", "UniProt Q99612": "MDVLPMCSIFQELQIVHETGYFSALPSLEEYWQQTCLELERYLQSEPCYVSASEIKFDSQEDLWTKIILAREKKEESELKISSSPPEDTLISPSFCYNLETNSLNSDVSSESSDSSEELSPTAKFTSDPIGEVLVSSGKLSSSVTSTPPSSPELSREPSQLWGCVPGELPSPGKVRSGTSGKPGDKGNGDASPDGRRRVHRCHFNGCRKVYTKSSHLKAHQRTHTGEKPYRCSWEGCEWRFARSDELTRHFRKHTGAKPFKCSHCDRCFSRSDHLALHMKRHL", "UniProt Q09472": "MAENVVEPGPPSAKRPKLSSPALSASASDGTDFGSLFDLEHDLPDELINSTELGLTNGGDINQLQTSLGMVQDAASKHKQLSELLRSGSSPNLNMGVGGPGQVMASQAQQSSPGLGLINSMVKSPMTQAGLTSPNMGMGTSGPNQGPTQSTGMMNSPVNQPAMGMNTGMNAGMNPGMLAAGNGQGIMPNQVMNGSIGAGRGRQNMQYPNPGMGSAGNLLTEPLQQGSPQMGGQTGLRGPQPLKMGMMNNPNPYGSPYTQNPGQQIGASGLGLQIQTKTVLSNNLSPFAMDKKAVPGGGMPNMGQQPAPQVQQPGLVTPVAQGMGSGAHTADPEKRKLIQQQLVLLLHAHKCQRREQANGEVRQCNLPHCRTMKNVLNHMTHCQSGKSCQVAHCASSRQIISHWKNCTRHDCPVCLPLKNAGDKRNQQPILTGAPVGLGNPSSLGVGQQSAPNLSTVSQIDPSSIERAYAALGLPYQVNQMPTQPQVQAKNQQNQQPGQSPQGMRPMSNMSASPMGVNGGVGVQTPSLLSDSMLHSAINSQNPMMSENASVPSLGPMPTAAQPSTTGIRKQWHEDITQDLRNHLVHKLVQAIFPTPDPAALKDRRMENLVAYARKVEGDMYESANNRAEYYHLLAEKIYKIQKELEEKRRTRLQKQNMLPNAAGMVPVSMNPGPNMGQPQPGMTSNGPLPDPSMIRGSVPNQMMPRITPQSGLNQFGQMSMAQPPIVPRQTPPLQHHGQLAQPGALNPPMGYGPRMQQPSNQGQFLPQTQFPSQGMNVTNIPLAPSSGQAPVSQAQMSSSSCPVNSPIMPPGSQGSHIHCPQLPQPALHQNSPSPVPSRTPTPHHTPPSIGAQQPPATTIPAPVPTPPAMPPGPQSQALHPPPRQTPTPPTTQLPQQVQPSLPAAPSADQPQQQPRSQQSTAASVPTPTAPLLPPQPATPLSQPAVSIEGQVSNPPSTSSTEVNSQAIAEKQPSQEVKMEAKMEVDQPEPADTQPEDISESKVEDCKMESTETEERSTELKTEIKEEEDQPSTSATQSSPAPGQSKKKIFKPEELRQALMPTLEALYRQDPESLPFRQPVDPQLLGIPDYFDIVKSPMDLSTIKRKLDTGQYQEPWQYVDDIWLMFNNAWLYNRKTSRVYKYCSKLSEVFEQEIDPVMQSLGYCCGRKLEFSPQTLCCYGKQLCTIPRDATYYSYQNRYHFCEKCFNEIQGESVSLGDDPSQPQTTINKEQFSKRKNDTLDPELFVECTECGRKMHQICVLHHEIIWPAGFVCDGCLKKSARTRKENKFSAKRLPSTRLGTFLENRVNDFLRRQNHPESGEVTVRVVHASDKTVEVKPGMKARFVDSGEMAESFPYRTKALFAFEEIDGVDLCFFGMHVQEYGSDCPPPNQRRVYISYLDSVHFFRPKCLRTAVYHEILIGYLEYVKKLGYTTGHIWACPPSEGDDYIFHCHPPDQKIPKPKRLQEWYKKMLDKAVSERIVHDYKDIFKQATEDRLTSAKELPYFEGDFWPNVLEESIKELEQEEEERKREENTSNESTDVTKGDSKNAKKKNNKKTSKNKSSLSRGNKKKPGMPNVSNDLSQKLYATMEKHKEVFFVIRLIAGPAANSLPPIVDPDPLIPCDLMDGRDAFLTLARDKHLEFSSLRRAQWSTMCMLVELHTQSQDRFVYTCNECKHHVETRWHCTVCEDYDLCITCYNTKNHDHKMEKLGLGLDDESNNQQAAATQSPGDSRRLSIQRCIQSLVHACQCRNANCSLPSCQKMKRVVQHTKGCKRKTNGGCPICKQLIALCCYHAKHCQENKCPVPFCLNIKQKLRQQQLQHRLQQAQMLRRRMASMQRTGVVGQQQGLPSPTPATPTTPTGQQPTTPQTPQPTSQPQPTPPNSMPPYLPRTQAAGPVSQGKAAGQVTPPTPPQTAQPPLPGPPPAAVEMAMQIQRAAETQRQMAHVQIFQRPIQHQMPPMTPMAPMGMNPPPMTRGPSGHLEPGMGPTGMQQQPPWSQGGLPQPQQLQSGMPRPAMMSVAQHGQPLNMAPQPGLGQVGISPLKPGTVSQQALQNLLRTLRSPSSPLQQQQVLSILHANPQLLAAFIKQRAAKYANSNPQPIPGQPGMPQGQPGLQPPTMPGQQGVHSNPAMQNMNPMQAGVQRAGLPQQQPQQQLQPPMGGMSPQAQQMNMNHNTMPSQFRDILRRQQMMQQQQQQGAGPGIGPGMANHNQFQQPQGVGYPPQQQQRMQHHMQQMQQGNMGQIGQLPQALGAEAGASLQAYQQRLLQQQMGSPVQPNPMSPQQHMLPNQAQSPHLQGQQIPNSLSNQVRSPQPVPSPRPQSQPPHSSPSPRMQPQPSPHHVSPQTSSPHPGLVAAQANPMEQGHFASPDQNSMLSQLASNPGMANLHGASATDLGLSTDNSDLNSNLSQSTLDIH", "UniProt Q9Y6J9": "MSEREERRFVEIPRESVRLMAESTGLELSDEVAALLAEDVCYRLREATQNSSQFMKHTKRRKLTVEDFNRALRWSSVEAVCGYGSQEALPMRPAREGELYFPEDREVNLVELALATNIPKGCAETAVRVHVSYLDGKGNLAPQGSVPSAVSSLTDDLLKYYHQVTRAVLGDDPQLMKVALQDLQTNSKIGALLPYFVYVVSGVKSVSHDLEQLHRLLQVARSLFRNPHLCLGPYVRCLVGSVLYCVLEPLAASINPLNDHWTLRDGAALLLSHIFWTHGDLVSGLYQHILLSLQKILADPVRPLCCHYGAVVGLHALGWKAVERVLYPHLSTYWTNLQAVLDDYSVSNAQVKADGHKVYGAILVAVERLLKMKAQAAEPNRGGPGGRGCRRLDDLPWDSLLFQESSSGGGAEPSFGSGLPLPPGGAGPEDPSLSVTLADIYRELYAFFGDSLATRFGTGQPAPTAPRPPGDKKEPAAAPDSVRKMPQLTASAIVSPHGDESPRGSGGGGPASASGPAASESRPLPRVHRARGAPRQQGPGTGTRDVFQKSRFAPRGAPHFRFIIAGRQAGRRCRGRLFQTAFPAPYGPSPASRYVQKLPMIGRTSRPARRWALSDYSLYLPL", "UniProt Q92831": "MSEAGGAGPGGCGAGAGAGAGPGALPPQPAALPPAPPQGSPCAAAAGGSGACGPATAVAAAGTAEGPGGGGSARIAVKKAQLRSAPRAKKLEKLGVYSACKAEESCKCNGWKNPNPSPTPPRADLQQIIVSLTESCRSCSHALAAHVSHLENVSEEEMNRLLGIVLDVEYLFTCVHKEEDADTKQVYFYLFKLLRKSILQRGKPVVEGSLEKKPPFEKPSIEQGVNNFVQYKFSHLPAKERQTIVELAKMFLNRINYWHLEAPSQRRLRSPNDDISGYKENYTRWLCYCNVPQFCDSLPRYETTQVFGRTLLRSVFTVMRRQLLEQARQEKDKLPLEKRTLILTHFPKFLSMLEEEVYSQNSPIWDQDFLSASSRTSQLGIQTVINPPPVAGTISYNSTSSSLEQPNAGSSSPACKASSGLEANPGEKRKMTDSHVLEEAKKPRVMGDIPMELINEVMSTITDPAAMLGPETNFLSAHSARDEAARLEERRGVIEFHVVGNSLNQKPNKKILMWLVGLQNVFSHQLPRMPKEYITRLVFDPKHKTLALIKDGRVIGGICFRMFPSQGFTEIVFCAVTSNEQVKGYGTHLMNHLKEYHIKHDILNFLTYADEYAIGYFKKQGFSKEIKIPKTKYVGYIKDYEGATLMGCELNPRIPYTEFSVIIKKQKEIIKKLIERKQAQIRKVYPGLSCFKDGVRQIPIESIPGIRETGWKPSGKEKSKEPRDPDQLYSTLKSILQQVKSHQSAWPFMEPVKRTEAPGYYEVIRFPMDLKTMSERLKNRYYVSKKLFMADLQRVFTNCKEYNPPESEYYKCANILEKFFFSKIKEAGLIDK"}, "source": "paper PMC11958781", "key": {"[1]": {"molecular_target": "KLF6 (human (endogenous in HCT15-FR)) (UniProt Q99612)", "assay": "co-IP; co-immunoprecipitation as previously described (ref. 30), HCT15-FR cells; which partner was precipitated is not told"}, "[2]": {"molecular_target": "T1, Flag-FOSL2 (UniProt P15408)", "T1 sequence": "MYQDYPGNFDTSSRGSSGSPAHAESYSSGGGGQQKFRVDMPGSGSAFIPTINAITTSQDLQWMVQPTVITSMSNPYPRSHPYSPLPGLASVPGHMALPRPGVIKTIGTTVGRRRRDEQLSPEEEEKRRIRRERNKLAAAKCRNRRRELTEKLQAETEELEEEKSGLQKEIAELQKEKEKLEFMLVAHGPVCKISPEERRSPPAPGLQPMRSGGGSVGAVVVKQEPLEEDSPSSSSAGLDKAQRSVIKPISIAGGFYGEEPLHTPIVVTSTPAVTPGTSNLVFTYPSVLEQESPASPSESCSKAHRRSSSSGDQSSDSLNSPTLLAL", "assay": "co-IP; HCT15-FR cells transfected with Flag-FOSL2; proteins immunoprecipitated with a Flag monoclonal antibody"}}, "note": "Results are given in words; binding and its absence hold for the method and conditions named. Binding seen in cells or lysates may run through a third protein. Some entries that bind do so weakly or less than the wild type. For some of these results: Tags and fused reporters may be left off the sequences shown."}
{"substance": "p300 (from UniProt Q09472 1-2414)", "values": [{"measurement": "binding", "setting": "[1]", "value": "binds"}]}
{"substance": "KLF6 (from UniProt Q99612 1-283)", "values": [{"measurement": "binding", "setting": "[2]", "value": "no binding"}]}
{"substance": "TAF6L (from UniProt Q9Y6J9 1-622)", "values": [{"measurement": "binding", "setting": "[1]", "value": "binds"}]}
{"substance": "p300/CBP-associated factor (PCAF) (from UniProt Q92831 1-832)", "values": [{"measurement": "binding", "setting": "[1]", "value": "binds"}]}
